Binding data for three molecules are collected here from article PMC8115264, “Mitofusin-2 stabilizes adherens junctions and suppresses endothelial inflammation via modulation of β-catenin signaling” (Nature Communications, 2021).

Sequences of proteins named here, by UniProt entry; tags and fusion partners are left off.
UniProt P06733: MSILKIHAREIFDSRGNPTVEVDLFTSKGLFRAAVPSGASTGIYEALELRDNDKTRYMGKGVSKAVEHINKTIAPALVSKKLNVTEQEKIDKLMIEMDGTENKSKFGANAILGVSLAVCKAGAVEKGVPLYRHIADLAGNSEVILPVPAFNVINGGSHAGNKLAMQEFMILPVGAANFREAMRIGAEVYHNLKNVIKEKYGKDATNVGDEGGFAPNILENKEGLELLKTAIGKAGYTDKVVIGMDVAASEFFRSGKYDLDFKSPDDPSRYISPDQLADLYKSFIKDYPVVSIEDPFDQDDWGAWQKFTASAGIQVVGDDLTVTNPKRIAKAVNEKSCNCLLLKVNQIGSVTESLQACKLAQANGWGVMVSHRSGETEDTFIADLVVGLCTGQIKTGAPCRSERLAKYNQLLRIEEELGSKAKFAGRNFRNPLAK

Results are given in words; binding and its absence hold for the method and conditions named. Binding seen in cells or lysates may run through a third protein. A yes stands for co-enrichment or nearness to the bait. Other partners may have been found. Tags and fused reporters may be left off the sequences shown.

The experiment deals with T1, GFP-Mfn2 (UniProt O95140 1-757).
T1 construct: The construct was generated in the authors' laboratory; also called lentiviral GFP-Mfn2; GFP-tagged Mfn2; source: HLMVECs, lentiviral expression (pWPXL), in lysate
T1 sequence (looked up): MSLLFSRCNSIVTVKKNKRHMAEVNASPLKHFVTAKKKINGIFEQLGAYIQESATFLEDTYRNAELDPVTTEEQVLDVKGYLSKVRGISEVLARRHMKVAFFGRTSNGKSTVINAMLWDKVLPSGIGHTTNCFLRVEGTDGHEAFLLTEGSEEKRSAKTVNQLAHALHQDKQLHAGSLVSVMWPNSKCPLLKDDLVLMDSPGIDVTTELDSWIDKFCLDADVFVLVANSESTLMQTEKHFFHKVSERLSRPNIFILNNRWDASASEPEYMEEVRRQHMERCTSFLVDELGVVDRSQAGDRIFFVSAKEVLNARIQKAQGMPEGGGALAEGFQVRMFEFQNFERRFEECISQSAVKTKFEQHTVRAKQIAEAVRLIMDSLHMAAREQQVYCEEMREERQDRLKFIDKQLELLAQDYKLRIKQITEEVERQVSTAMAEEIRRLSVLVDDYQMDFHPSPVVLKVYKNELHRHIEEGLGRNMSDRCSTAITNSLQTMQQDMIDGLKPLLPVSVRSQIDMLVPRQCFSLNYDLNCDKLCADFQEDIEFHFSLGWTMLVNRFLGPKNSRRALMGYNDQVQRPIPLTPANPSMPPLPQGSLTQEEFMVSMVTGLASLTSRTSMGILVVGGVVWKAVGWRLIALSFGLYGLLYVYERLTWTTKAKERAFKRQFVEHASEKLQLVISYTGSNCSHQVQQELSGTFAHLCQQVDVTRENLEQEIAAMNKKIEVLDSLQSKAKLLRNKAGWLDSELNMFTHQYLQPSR
As to the kind of experiment: affinity purification with mass spectrometry; GFP-Mfn2 from HLMVEC lysate immunoprecipitated with GFP-trap magnetic agarose; LC-MS/MS; lentiviral GFP as control; hits found in at least two of three experiments with >1.5-fold increase.

Turning to ENO1 (from UniProt P06733 1-434), the binding result was “binds”.
In the case of “MACF1 (Microtubule Actin Crosslinking Factor 1) (from UniProt Q9UPN3 1-7388)” it was “binds”.

B1: KRT18 (protein, UniProt P05783 1-430)
chain: MSFTTRSTFSTNYRSLGSVQAPSYGARPVSSAASVYAGAGGSGSRISVSRSTSFRGGMGSGGLATGIAGGLAGMGGIQNEKETMQSLNDRLASYLDRVRSLETENRRLESKIREHLEKKGPQVRDWSHYFKIIEDLRAQIFANTVDNARIVLQIDNARLAADDFRVKYETELAMRQSVENDIHGLRKVIDDTNITRLQLETEIEALKEELLFMKKNHEEEVKGLQAQIASSGLTVEVDAPKSQDLAKIMADIRAQYDELARKNREELDKYWSQQIEESTTVVTTQSAEVGAAETTLTELRRTVQSLEIDLDSMRNLKASLENSLREVEARYALQMEQLNGILLHLESELAQTRAEGQRQAQEYEALLNIKVKLEAEIATYRRLLEDGEDFNLGDALDSSNSMQTIQKTTTRRIVDGKVVSETNDTKVLRH
Turning to B1, the binding entry is “binds”.
